Experimental data from ChEMBL document CHEMBL2086354, “Testing the promiscuity of commercial kinase inhibitors against the AGC kinase group using a split-luciferase screen” (J Med Chem, 2012).
Activity calls are given as the source filed them.

Chains of the proteins cited; added tags and fusions are not shown. Lines headed by an entry give the natural chain unless they say otherwise; changes in a name come on top.
UniProt P31751: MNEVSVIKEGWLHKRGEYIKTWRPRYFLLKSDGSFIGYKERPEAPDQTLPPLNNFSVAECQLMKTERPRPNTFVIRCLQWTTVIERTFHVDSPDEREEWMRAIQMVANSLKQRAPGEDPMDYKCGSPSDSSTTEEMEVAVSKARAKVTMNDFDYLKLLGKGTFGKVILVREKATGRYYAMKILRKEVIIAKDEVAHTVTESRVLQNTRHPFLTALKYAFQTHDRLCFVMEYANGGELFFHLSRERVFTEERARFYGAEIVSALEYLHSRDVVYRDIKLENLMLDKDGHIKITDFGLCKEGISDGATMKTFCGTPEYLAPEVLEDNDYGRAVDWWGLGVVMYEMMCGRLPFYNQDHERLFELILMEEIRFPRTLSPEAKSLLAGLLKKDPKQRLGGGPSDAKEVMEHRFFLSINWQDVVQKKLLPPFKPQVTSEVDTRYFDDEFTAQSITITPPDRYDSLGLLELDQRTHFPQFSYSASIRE
UniProt Q9Y243: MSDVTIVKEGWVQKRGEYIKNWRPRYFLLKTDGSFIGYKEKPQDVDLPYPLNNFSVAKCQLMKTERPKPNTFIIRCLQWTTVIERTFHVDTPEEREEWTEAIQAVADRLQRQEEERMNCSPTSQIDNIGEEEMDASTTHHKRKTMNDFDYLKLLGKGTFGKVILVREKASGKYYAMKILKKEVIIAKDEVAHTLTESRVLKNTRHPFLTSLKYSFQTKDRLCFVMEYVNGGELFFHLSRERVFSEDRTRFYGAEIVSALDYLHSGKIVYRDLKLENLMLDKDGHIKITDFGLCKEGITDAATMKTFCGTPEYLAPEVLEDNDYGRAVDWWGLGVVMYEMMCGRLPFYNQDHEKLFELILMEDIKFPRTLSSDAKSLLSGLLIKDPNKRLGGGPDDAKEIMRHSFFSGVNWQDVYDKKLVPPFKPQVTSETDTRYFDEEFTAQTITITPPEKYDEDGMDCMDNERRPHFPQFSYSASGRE
UniProt Q05655: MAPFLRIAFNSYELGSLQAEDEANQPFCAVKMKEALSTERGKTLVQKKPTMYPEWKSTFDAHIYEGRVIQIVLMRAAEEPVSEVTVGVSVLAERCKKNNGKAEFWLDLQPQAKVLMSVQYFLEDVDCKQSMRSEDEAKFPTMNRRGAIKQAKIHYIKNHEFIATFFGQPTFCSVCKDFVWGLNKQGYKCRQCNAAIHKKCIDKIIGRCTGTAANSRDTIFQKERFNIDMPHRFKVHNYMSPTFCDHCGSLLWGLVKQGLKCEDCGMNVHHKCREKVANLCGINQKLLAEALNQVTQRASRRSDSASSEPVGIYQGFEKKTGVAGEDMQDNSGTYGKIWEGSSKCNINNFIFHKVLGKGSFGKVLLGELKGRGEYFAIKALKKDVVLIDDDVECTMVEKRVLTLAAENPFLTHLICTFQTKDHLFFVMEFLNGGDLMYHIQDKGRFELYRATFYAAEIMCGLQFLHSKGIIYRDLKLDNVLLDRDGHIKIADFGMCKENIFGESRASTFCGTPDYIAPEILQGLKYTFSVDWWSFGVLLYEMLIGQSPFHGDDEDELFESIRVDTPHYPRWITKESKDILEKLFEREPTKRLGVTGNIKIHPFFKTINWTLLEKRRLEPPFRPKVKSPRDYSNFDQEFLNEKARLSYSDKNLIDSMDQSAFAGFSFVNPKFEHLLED
UniProt P31749: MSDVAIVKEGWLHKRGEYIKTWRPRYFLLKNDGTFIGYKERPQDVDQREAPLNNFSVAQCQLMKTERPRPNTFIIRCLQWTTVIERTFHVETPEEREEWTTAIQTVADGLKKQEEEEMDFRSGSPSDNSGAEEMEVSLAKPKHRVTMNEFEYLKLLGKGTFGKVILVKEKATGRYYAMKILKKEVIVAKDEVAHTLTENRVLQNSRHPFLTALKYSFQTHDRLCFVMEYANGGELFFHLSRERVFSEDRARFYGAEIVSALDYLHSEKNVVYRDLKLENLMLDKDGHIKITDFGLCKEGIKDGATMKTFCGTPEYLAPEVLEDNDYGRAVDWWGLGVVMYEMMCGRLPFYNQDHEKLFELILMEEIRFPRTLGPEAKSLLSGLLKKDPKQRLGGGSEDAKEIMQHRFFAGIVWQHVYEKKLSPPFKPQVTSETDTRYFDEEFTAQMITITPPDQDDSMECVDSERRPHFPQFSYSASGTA

Legend:
[1] = target: T1, Protein kinase C epsilon type (Homo sapiens) (UniProt Q02156); test: Inhibition of Protein kinase C epsilon type at 10 uM by luciferase assay
T1 sequence (whole entry): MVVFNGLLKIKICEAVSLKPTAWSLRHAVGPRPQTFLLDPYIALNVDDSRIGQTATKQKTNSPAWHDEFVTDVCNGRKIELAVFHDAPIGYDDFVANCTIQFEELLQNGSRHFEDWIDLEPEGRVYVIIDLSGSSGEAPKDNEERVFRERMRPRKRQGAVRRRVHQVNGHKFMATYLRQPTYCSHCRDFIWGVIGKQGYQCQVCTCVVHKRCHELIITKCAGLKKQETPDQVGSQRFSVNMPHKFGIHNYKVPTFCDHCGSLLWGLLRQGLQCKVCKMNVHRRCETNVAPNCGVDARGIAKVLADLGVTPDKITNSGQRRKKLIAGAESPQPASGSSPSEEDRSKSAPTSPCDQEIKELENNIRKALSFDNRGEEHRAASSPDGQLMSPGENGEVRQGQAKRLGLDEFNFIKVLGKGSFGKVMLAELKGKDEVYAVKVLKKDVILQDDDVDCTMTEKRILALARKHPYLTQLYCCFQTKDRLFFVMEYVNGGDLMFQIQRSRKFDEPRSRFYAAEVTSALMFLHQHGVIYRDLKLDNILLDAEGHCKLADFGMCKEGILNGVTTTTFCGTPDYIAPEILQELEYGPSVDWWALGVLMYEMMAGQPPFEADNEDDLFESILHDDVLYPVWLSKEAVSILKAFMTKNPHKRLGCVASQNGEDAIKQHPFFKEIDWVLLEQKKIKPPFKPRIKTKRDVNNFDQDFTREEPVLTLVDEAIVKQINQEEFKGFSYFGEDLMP
In short: (§1)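 Cell-free split-firefly-luciferase competitive binding assay: Cfluc-kinase fusion mRNA co-translated with Fos-Nfluc mRNA in rabbit reticulocyte lysate, 30 °C for 90 min, then frozen at −80 °C and thawed on ice. Lysate given active-site probe (120 nM final) and inhibitor at 10 μM final in DMSO, 1 h at room temperature. Luminescence read after luciferin reagent, in duplicate. Percent inhibition = 1 − (background-subtracted signal ÷ DMSO positive control).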

[2] = target: RAC-beta serine/threonine-protein kinase (Homo sapiens) (UniProt P31751); test: Inhibition of AKT2 at 10 uM by luciferase assay; in short: as §1
[3] = target: RAC-gamma serine/threonine-protein kinase (Homo sapiens) (UniProt Q9Y243); test: Inhibition of AKT3 at 10 uM by luciferase assay; in short: as §1
[4] = target: Protein kinase C gamma type (Homo sapiens) (UniProt P05129); test: Inhibition of Protein kinase C gamma type at 10 uM by luciferase assay; in short: as §1
[5] = target: Protein kinase C delta type (Homo sapiens) (UniProt Q05655); test: Inhibition of Protein kinase C delta type at 10 uM by luciferase assay; in short: as §1
[6] = target: RAC-alpha serine/threonine-protein kinase (Homo sapiens) (UniProt P31749); test: Inhibition of AKT1 at 10 uM by luciferase assay; in short: as §1

Measured: inhibition

O=C1NC(=O)c2c1c(-c1ccccc1)cc1[nH]c3ccc(O)cc3c21
inactive: [1] | [2] | [3] | [4] | [5] | [6]
